Results reported in US10435642B2, “Ionic liquids containing symmetric quaternary phosphonium cations and phosphorus-containing anions, and their use as lubricant additives” (UT-Battelle, LLC, priority 2014, dated 2019).

Assays:
[1] = Corrosion test: droplet of ionic liquid on grey cast iron; conditions: fourteen days of exposure
From the text: A droplet of each IL was placed on the surface of a piece of grey cast iron.

[2] = High contact stress ball-on-flat reciprocating sliding test (friction and wear); conditions: for Wear rate: in GTL base oil: 1 wt % ZDDP, 1.03 wt % [P8888][DEHP], or 0.4 wt % ZDDP + 0.515 wt % [P8888][DEHP]

Substance	Corrosion of gray cast iron surface exposed to IL droplet [1]	Lower wear rate as compared to [P66614][DEHP] or ZDDP ([2]; 1.03 wt % in GTL base oil)	Wear rate [2]
tetraoctylphosphonium bis(2-ethylhexyl)phosphate [[P8888][DEHP]]	no evidence of corrosion	greater than 40%	1.05×10^−6 mm^3/N-m
tributyltetradecylphosphonium bis(2-ethylhexyl)phosphate [[P44414][DEHP]]	pitting appeared	–	–
trihexyltetradecylphosphonium bis(2-ethylhexyl)phosphate [[P66614][DEHP]]	no evidence of corrosion	–	–
zinc dialkyldithiophosphate [ZDDP]	–	–	1.83×10^−6 mm^3/N-m
